Assay results reported in US10940188B2, “Compounds and methods for treatment and prevention of Flavivirus infection” (priority 2016, dated 2021).
Structures can show the parent of a compound that is named as a salt. At least one compound was matched to its structure with a doubt left.

Test system: HEK293 cells
Test: Toxicity IC50 (cell-killing activity) of the NS1 TR-FRET screen
Type: cell-based, human

SMILES | Tox IC50
COc1cccc2c1C(=O)c1c(O)c3c(c(O)c1C2=O)C[C@@](O)(C(=O)CO)C[C@@H]3O[C@H]1C[C@H](N)[C@@H](O)[C@H](C)O1 [Epirubicin hydrochloride] | No
C=CC[C@@H]1/C=C(\C)C[C@H](C)C[C@H](OC)[C@H]2O[C@@](O)(C(=O)C(=O)N3CCCC[C@H]3C(=O)O[C@H](/C(C)=C/[C@@H]3CC[C@@H](O)[C@H](OC)C3)[C@H](C)[C@@H](O)CC1=O)[C@H](C)C[C@@H]2OC [FK-506] | No
